# Screening data

Source: PubChem BioAssay AID1159506 (NCATS, 2015).

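Luminescence from an EWS-FLI1 target-promoter (NR0B1) reporter, set against a CMV-promoter reporter, two days after silencing single genes in TC32 Ewing sarcoma cells. Each siRNA was applied at 20 nM. A z-score of the log NR0B1-over-CMV signal, less the median of siRNAs with the same seed; more negative means a stronger specific loss of the NR0B1 reporter.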

This is part of the screen; most of the strongest results are not listed here. Sequences are the guide (antisense) strand, without overhang.

Sequence,gene,seed-corrected z-score
UUUGGAACUUGCCGAAUUG,LYRM2,1.058
UAUGUGCACAGUGAAGCGA,SNX15,-0.5668
UUCUGUAUGUGACUUGUAG,CEACAM21,-0.2434
UCUAAGGACACUAAGAGAG,PCDHGC4,0.01639
AUAUCGACCUCUGUGACCC,PDILT,0.3617
AUUGCUCUUAGCCCUGCCG,FLJ20021,-1.188
AACUUAACCAAGAACAGAG,FLJ41170,1.091
UCGAAAGCAAACAUAGUCC,PCNX1,0.0652
UUGCAUUAUCCGAUAAGCU,VAMP4,1.32
UCUGAUCCUGGUAAUUUCC,FBXO28,0.4524
UUUGCUUAGUUCUCGAACU,LOC391771,-0.2128
UCAAUUCCCAUCCCAAACC,SUPT16H,-0.7657
AUAUGGGUAGGUGUAUUGC,ARIH2,-0.3463
UCUGCUUUUUCCCUCAUUC,ABHD10,-0.2553
UCCUGUUCAGCUUUAACAC,LRIG3,0.06435
AUAGGCUUAAAUAUCUGCC,HDAC2,0.8606
UUUAUACUCAAGGUUAGCA,VTCN1,0.4165
UAGAGGAAUAGUACCGCCG,TMEM115,-1.076
UUUCAAUCCUCCGGAGUCG,GSX2,0.176
UAAGAUAAGACAGAAAUAA,PHF7,-0.1225
AACUCGAUCAGCAGCUUGC,KAT5,-0.8764
UAACAUGUGAUCAGAUCCC,PHF23,0.1253
AGAAUUCCCAGAACGAUGG,CD6,0.9853
UCUCUGGCCAAUCAUAUCG,GIPC3,-0.1036
UUAUCCUCAAGUCACGACG,DYNC1H1,0.2208
AAAUGGAUUAAAGUCAAUG,CDC123,0.7156
UGUAUAGUAAAGCAGGUUC,TRPV2,-1.177
UUUGUGCUCACCCACUCGG,NAGS,-0.07221
UACUUGAGCCCGUAGAUGC,ZNF512B,0.6
UAUACAAAGAGGAAUAGUC,BHLHE41,0.1809
UCCUUUUUCACGGUUCUGC,DERA,-0.9958
UCAGUUUCCUUUGCUUCUG,LOC729683,0.1506
UGUCUUAAAAGCAUCAUCA,SLC6A15,0.4996
UUAGUAUCAGCUCUUGUUG,PHLDB3,1.297
UUCAUGUGCAAAGAGCUGG,PPP1R3F,0.28
AUAGAGGCCGGAGUAGUGC,GYLTL1B,0.01012
UGUAGUUCUACAUCCAGUG,DNAJC6,-0.106
AAUCAGGUACUUUACGCUC,NMNAT3,-0.02295
UUUGGGAAGAGUGCGGUUC,S100A13,-0.4802
ACCAUGCACAGGGAUGAGC,LY6G5B,0.4807
UUUGGUGUUUCUGGUAGGC,RHNO1,0.447
AGGUGGAACAACACGUGUC,KIR2DL1,-1.329

Repeated from the top, 3 entries:

Sequence	gene	seed-corrected z-score
UUUGGAACUUGCCGAAUUG	LYRM2	1.058
UAUGUGCACAGUGAAGCGA	SNX15	-0.5668
UUCUGUAUGUGACUUGUAG	CEACAM21	-0.2434